Assay results from PubChem BioAssay AID493014 (National Center for Advancing Translational Sciences (NCATS), 2011).
The list shows a part of the results. Further columns of the screen follow, without active or inactive calls. The list favours compounds with an active or inconclusive main result. The note in brackets gives the kind of curve behind each potency; many fits are weak.

Test: qHTS Assay to Find Inhibitors of Chronic Active B-Cell Receptor Signaling
Conditions: ABC-DLBCL IkBa-CBG/CBR reporter, luminescence ratio (green luciferase fused to IkBa over red control in TMD8 lymphoma cells), 4 h
How it was run: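 Concentration-response series (up to 46 uM) were applied to TMD8 dual-reporter cells for 4 h at 37C with doxycycline. Green/red ratio, after filter-overlap correction, defined %Activity; red signal alone was normalised to basal cells and zero luminescence.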

[1] = measured here: CBR red luminescence, cell number
[2] = measured here: IkBa-CBG green luminescence

Row | SMILES | AC50 [1] | AC50 [2]
1 | COc1cc(/C=N/n2cnnc2)ccc1OC(=O)c1ccncc1 | 7.08 µM [falling, partial curve] | –
2 | CCCCN(C)CCCNC(=O)c1cc(-c2cccs2)nc2ccccc12 | 35.5 µM [falling, single point] | –
3 | Cc1cccc(CSCc2nnc(N)s2)c1 | 29.1 µM [rising, partial curve] | –
4 | Cc1ccc2cccc(OCCCOc3ccccc3F)c2n1 | 0.708 µM [rising, partial curve, poor fit] | –
5 | Cc1nc2sc3c(c2c(=O)o1)CCC3 | 6.51 µM [rising, single point] | –
6 | Cc1ccc(NC(=O)c2ccccc2O)cc1 | 6.51 µM [falling, partial curve] | –
7 | Cc1ccc2cc(/C=N/NC(=O)c3ccccc3O)c(Cl)nc2c1 | 14.6 µM [falling, partial curve, poor fit] | –
8 | O=C(/C=C/c1ccco1)Nc1ccc2c(c1)OCO2 | 5.01 µM [falling, partial curve] | –
9 | CC(C)COc1nc2ccccc2nc1C(C#N)C(=O)NC1CCCCC1 (stereo not given) | 2.31 µM [rising, full curve] | –
10 | COCC(C)NC(=O)CCS(=O)(=O)c1nc(-c2ccc(OC)cc2)cc(C(F)(F)F)n1 (stereo not given) | 2.91 µM [falling, full curve] | –
11 | CSc1nc(-c2ccccc2)cn1-c1ccc(NC(C)=O)cc1 | 20 µM [falling, single point] | –
12 | CCOc1cccc2sc(NN)nc12 | 5.01 µM [falling, full curve] | –
13 | O=C1/C(=C\c2cccnc2)CCc2ccccc21 | 35.5 µM [falling, single point] | –
14 | O=C(CCCC(=O)N(CC(=O)NC1CCCC1)Cc1ccccc1Cl)Nc1ccccn1 | 10 µM [falling, partial curve, poor fit] | –
15 | Cc1csc(NC(=O)c2cn3ccccc3n2)n1 | 6.31 µM [falling, partial curve, poor fit] | –
16 | CCOC(=O)C1=C(C)N(c2ccccc2)C(=O)/C1=C\c1cccs1 | 29.1 µM [rising, single point] | –
17 | Cc1cc(C)c2c(N)c(C(=O)Nc3nccs3)sc2n1 | 15.8 µM [falling, partial curve, poor fit] | –
18 | CCOC(=O)CC1(c2ccc(OC)c(OC)c2)C(=O)c2ccccc2C1=O | – | 20 µM [falling, partial curve, poor fit]
19 | CCOc1ccc(NC(=O)CCSc2nc3c(c(CC)c2C#N)C(=O)CC(C)(C)C3)cc1 | 18.4 µM [falling, single point] | –
20 | CC[C@]12c3[nH]c4cc(CCC(=O)N(C)C)ccc4c3CCN1C(=O)[C@@H](CC(=O)NCCN1CCOCC1)C[C@@H]2C(=O)N1CCN(C(=O)c2ccco2)CC1 | 3.26 µM [rising, full curve] | –
21 | CCOC(=O)C(C)(C)N(Cc1ccccc1C)S(=O)(=O)c1ccc(Cl)c([N+](=O)[O-])c1 | 20.6 µM [falling, single point] | –
22 | CCOC(=O)CSc1ccc(C(=O)Nc2ccc(Cl)cc2)cn1 | 12.6 µM [falling, partial curve, poor fit] | –

Row | SMILES | AC50 [1] | AC50 [2]
23 | COc1ccc(C(O)P(=O)(O)CCc2ccccc2)cc1 (stereo not given) | 0.794 µM [falling, full curve, poor fit] | –
24 | COc1ccccc1C(=O)N/N=C/c1cnc2ccccc2n1 | 10.3 µM [falling, partial curve, poor fit] | –
25 | Cc1ccc(CN2C(=O)S/C(=C\c3ccccc3OCC(=O)O)C2=O)cc1 | 22.4 µM [falling, single point] | –
26 | O=C(NCCCN1CCCCCC1)C1CC(=O)N(CCc2ccccc2)C1 (stereo not given) | 6.31 µM [rising, single point] | –
27 | O=C(CCc1nc(-c2ccc(F)cc2)no1)NCc1ccccc1CN1CCOCC1 | 0.731 µM [rising, full curve, poor fit] | –
28 | O=C(CCC(=O)c1ccc(Oc2ccccc2)cc1)Nc1ccc(C(=O)O)cc1 | 4.47 µM [falling, partial curve, poor fit] | –
29 | S=c1nc[nH]c2c1ncn2C1CCCO1 (stereo not given) | 3.55 µM [rising, full curve] | –
30 | COC(=O)c1ccc(CN2C(=O)NC3(CCCCC3)C2=O)cc1 | 20 µM [falling, single point] | –
31 | CCCCOC(=O)c1ccc(N)cc1 | 14.6 µM [rising, single point] | –
32 | CCOc1ccc(NC(=O)CN(C)C(=O)CCCc2c[nH]c3ccccc23)cc1OCC | 9.2 µM [falling, partial curve] | –
33 | Cc1ccc(-c2nnc(NC3CCCC3)s2)cc1 | 8.91 µM [falling, partial curve] | –
34 | CCOC(=O)c1ccc(N2C(=O)[C@@H](c3ccccc3)[C@H]2c2ccccc2)cc1 | 20.6 µM [rising, single point] | –
35 | CSc1ncccc1C(=O)OCc1c(F)cccc1Cl | 11.2 µM [rising, partial curve] | –
36 | COc1cc(/C=C2/SC(=Nc3ccc(O)cc3)NC2=O)cc(OC)c1O | 0.2 µM [falling, full curve, poor fit] | –
37 | COc1ccc2oc(C(=O)Nc3ccccn3)c(C)c2c1 | 7.94 µM [falling, partial curve] | –
38 | CCS(=O)(=O)n1c(Cc2cccs2)nc2ccccc21 | 29.1 µM [falling, partial curve, poor fit] | –
39 | COc1ccc(C(=O)c2c[nH]cc2-c2ccccc2)cc1 | 29.1 µM [rising, partial curve, poor fit] | –
40 | Cc1ccc(S(=O)(=O)CC(=O)N2CCN(c3ccc([N+](=O)[O-])cc3)CC2)cc1 | 5.8 µM [falling, partial curve, poor fit] | –
41 | CCOc1ccc(C(=O)NC(=S)Nc2ncccc2C)cc1[N+](=O)[O-] | – | 16.4 µM [falling, partial curve, poor fit]
42 | CCOc1ccc(N(CC(=O)NC2CCCCCC2)S(=O)(=O)c2ccccc2)cc1 | 12.6 µM [falling, single point] | –
43 | COC(=O)c1cccc(NC2=NS(=O)(=O)c3ccccc32)c1 | 11.2 µM [falling, single point] | –
44 | COc1ccc(-c2cc(C(=O)NC3=NCCS3)c3ccccc3n2)cc1OC | 11.2 µM [falling, partial curve, poor fit] | –

Row | SMILES | AC50 [1] | AC50 [2]
45 | CC(O)c1cccc(-c2ccc(CN3C[C@]4(CO)O[C@@H](CO)C[C@@H]4S3(=O)=O)cc2)c1 (stereo not given in full) | – | 14.6 µM [falling, partial curve]
46 | C=CCSc1nc2ccccc2c(=O)n1C1CCOC(C)(C)C1 (stereo not given) | 10 µM [rising, partial curve, poor fit] | –
47 | COc1ccc(-c2oc3cccnc3c2-c2ccc(OC)nc2)cc1 | 35.5 µM [rising, single point] | –
48 | O=C(N=Nc1c(O)[nH]c2ccc(Br)cc12)c1ccccc1-n1cccc1 | 18.4 µM [rising, single point] | –
49 | COc1ccc(/C=N/NC(=O)c2ccc(-n3cnnn3)cc2)cc1 | 16.4 µM [falling, partial curve, poor fit] | –
50 | CC1CCc2sc3nc(NCc4ccco4)n4ncnc4c3c2C1 (stereo not given) | 15.8 µM [rising, single point] | –
51 | COc1nc(NC(C)(C)C)nc(Oc2ccc(=O)n(-c3ccccc3)n2)n1 | 1.12 µM [rising, full curve] | –
52 | CCC(C(=O)NCc1ccccc1OC)n1nc(C)n2c(cc3occc32)c1=O (stereo not given) | 0.13 µM [falling, full curve, poor fit] | –
53 | Cc1cc(SCC(=O)c2ccccc2)nc(C)n1 | 35.5 µM [falling, single point] | –
54 | O=C(c1cccc(C(F)(F)F)c1)N1CCCC1 | 29.1 µM [falling, single point] | –
55 | CCn1cc([N+](=O)[O-])c(C(=O)N2N=C(c3cccc4ccccc34)CC2c2ccccc2O)n1 (stereo not given) | 0.651 µM [falling, partial curve, poor fit] | –
56 | COc1ccc(NC(=O)CN(C)C(=O)c2cc(-c3ccc(OC)cc3)nc3ccccc23)cc1 | 32.6 µM [falling, partial curve, poor fit] | –
57 | CCNC(=S)N(Cc1ccc2c(c1)OCO2)C1CC(=O)N(c2ccc(F)cc2)C1=O (stereo not given) | 9.2 µM [falling, partial curve, poor fit] | –
58 | CCOC(=O)C1CCN(Cc2c(O)c3ccccc3oc2=O)CC1 | 0.316 µM [falling, full curve, poor fit] | –
59 | O=C(CCCSc1nnc(Nc2ccccc2F)s1)N1CCOCC1 | 4.47 µM [falling, partial curve] | –
60 | O=C(Nc1ccccc1F)N(CCCN1CCOCC1)Cc1cc2cc3c(cc2[nH]c1=O)OCCO3 | 12.6 µM [falling, partial curve, poor fit] | –
61 | COc1cccc(OCCCCSc2ncccn2)c1 | 0.517 µM [falling, partial curve, poor fit] | –
62 | Cc1ccc(C)c(N2CCN(C(=S)Nc3ccc4nc(N5CCOCC5)cc(C)c4c3)CC2)c1 | 20 µM [falling, partial curve, poor fit] | –
63 | COc1ccc(C(=O)Nc2cccc(-c3nnc(-c4ccco4)o3)c2)cc1 | 32.6 µM [falling, single point] | –
64 | O=C(CNC(=O)c1ccccn1)N=Nc1c(O)[nH]c2ccccc12 | 12.6 µM [falling, partial curve] | –
65 | O=C(COc1ccccc1)N1CCN(C(=O)COc2ccccc2)CC1 | 0.631 µM [rising, full curve] | –

Quoted at random: 2 records from the list, in no set order.
Row | SMILES | AC50 [1] | AC50 [2]
46 | C=CCSc1nc2ccccc2c(=O)n1C1CCOC(C)(C)C1 (stereo not given) | 10 µM [rising, partial curve, poor fit] | –
47 | COc1ccc(-c2oc3cccnc3c2-c2ccc(OC)nc2)cc1 | 35.5 µM [rising, single point] | –

Arranged by length of the SMILES (largest number first): part of the list above.
Row | SMILES | AC50 [1] | AC50 [2]
51 | COc1nc(NC(C)(C)C)nc(Oc2ccc(=O)n(-c3ccccc3)n2)n1 | 1.12 µM [rising, full curve] | –
50 | CC1CCc2sc3nc(NCc4ccco4)n4ncnc4c3c2C1 (stereo not given) | 15.8 µM [rising, single point] | –
53 | Cc1cc(SCC(=O)c2ccccc2)nc(C)n1 | 35.5 µM [falling, single point] | –
